Data reported in PubChem BioAssay AID493014 (National Center for Advancing Translational Sciences (NCATS), 2011).
The other results are listed elsewhere or left out. Further columns of the screen follow, without active or inactive calls. The list favours compounds with an active or inconclusive main result. Potencies come from curve fits of mixed quality, noted in brackets.

Experiment: qHTS Assay to Find Inhibitors of Chronic Active B-Cell Receptor Signaling
Settings: ABC-DLBCL IkBa-CBG/CBR reporter, luminescence ratio (green luciferase fused to IkBa over red control in TMD8 lymphoma cells), 4 h
Summary of the method: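 Concentration-response series (up to 46 uM) were applied to TMD8 dual-reporter cells for 4 h at 37C with doxycycline. Green/red ratio, after filter-overlap correction, defined %Activity; red signal alone was normalised to basal cells and zero luminescence.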

[1] = measured here: IkBa-CBG green luminescence
[2] = measured here: CBR red luminescence, cell number

| SMILES | AC50 [1] | AC50 [2] |
| --- | --- | --- |
| COc1ccc(S(=O)(=O)Nc2ccc3c(c2)n(C)c(=O)n3C)cc1F | 11.2 µM [falling, partial curve] | – |
| CCn1nnc(NC(=O)COc2cc(C)ccc2C(C)C)n1 | – | 16.4 µM [falling, single point] |
| CSc1nc2sc3c(c2c(=O)n1C)CCC3 | – | 10 µM [rising, partial curve, poor fit] |
| N=C1C(c2ccc(Br)cc2)=C(O)C2CCc3ccccc3N12 (stereo unspecified) | – | 7.08 µM [falling, partial curve, poor fit] |
| COc1ccc(/C=N/NC(=O)c2ccccc2O)cc1CN1CCOCC1 | – | 11.2 µM [falling, partial curve, poor fit] |
| CCCn1nc2cc(C(=O)NCc3ccccc3)ccc2c1OCC | – | 0.631 µM [falling, full curve, poor fit] |
| O=C(O)c1cc(S(=O)(=O)Nc2ccccc2Cc2ccccc2)ccc1Cl | – | 3.16 µM [falling, partial curve, poor fit] |
| C=CCn1c(NCc2c[nH]c3ccccc23)nc2ccccc21 | – | 2.06 µM [falling, partial curve] |
| O=C(Nc1cccc(O)c1)c1cc(-c2cccs2)on1 | – | 3.98 µM [falling, partial curve] |
| CCN(/N=C/C=C/c1ccccc1)c1cc(=O)n(C)c(=O)[nH]1 | – | 32.6 µM [rising, partial curve, poor fit] |
| CC(=O)c1ccc(-n2nnnc2SCC(=O)Nc2sc(C)c(C)c2C#N)cc1 | – | 20.6 µM [rising, partial curve, poor fit] |
| C/C(O)=C(\N=Nc1cc(C)ccc1O)C(N)=O | – | 1.12 µM [falling, full curve, poor fit] |
| COc1ccc(-c2nnc(SCC(=O)Nc3ccc(C(C)=O)cc3)nc2-c2ccc(OC)cc2)cc1 | – | 31.6 µM [falling, single point] |
| O=C(Nc1ccc(F)cc1F)NC1CCN(S(=O)(=O)c2ccc(F)cc2)CC1 | – | 25.1 µM [falling, single point] |
| COc1ccccc1/C=C/C(=O)OCC(=O)N1CCCCC1 | – | 9.2 µM [falling, partial curve] |
| COC(=O)C1CCN(C(=O)CN2C(=O)NC(CC(C)C)C2=O)CC1 (stereo unspecified) | – | 29.1 µM [falling, single point] |
| CCCC(C(=O)NCC1CCCO1)N(Cc1ccco1)C(=O)CNS(=O)(=O)c1ccc(F)cc1 (stereo unspecified) | – | 29.1 µM [rising, single point] |
| O=C(Nc1cccc(F)c1)c1ccc2c(c1)OCCO2 | – | 10 µM [falling, partial curve] |
| CN(Cc1nc2ccccc2c(=O)[nH]1)C(=O)c1cc(C2CC2)nn1-c1ccccc1 | – | 10.3 µM [falling, partial curve] |
| C=CCN(c1ccccc1Cl)S(=O)(=O)c1cc(C(=O)N2CCCC2)ccc1Cl | – | 12.6 µM [falling, partial curve, poor fit] |
| COc1ccccc1OCC(=O)O/N=C(\N)c1ccccn1 | – | 1.58 µM [falling, full curve] |
| COn1c(-c2ccc(Cl)cc2)nc2ccc(Cl)cc21 | – | 2 µM [rising, partial curve, poor fit] |

| SMILES | AC50 [1] | AC50 [2] |
| --- | --- | --- |
| O=C(O)c1nc2ccccc2nc1C(=O)O | – | 3.55 µM [rising, partial curve, poor fit] |
| COc1ccc(N(CC(=O)NCc2ccccc2OC)S(=O)(=O)c2ccc(C)cc2)cc1Cl | – | 14.1 µM [falling, single point] |
| O=S(=O)(c1cccc(Cl)c1Cl)N1CCCCC1 | – | 0.58 µM [rising, full curve, poor fit] |
| COc1ccc(CNCCC(c2ccc(OC)cc2)c2ccccc2OC)cc1 (stereo unspecified) | – | 35.5 µM [falling, single point] |
| CCN(CC)CCn1nc2c3c(cccc3c1=O)-c1ccccc1-2 | – | 11.2 µM [falling, single point] |
| CCCCN(C)CCC(=O)Nc1ccc(Cl)cc1 | – | 10.3 µM [rising, single point] |
| CO[C@@H]1[C@@H](OC(N)=O)[C@@H](O)C(Oc2ccc3c(O)c(NC(=O)c4ccc(O)c(CC=C(C)C)c4)c(=O)oc3c2C)OC1(C)C (stereo partly specified) | – | 29.1 µM [falling, single point] |
| Cc1ccc(NCC(=O)N/N=C/c2ccc(OC(=O)c3ccco3)cc2)cc1 | – | 1 µM [falling, partial curve, poor fit] |
| O=C(CCC(=O)Nc1nnc(C2CCCCC2)s1)NCc1cccs1 | – | 3.16 µM [rising, full curve, poor fit] |
| O=C(N/N=C\c1ccc(Cl)s1)c1cccs1 | – | 18.4 µM [falling, single point] |
| CCOC(=O)CSc1ncc(-c2ccccc2)nn1 | – | 0.517 µM [falling, full curve, poor fit] |
| Cc1ccc2sc(N(CCCN(C)C)C(=O)CN3C(=O)c4ccccc4C3=O)nc2c1C | – | 35.5 µM [falling, partial curve, poor fit] |
| CCN1CCN(c2ccc(S(=O)(=O)N3CCOCC3)cc2NC(=O)/C=C/c2ccc([N+](=O)[O-])cc2)CC1 | 23.1 µM [falling, single point] | 29.1 µM [rising, single point] |
| CCCC(=O)Nc1nc(-c2ccccc2)ns1 | – | 14.6 µM [falling, single point] |
| CCOc1ccc(NC(=O)COC(=O)C2CC2C)cc1 (stereo unspecified) | – | 1.64 µM [rising, full curve] |
| CC(C)[C@H](NC(=O)c1ccccc1Cl)C(=O)OCc1cc(=O)n2cc(Br)ccc2n1 | – | 8.91 µM [rising, partial curve] |
| O=C(NC(=S)Nc1ccc(S(=O)(=O)N2CCCCC2)cc1)c1ccc(Cl)cc1 | – | 3.26 µM [falling, single point] |
| O=c1[nH]c(SCc2ccccc2Cl)nc2c1cnn2-c1ccccc1 | – | 29.1 µM [rising, single point] |
| O=C(CSc1n[nH]c(-c2ccncc2)n1)Nc1ccc(Cl)c(Cl)c1 | – | 35.5 µM [falling, single point] |
| Cc1ccsc1C(=O)NNC(=O)C1CCCCC1C(=O)O (stereo unspecified) | – | 1.46 µM [falling, partial curve] |
| Cc1cc([N+](=O)[O-])nn1CCCC(=O)NCc1ccc(F)cc1 | – | 20 µM [rising, single point] |
| O=c1oc(-c2cccs2)nc2ccc(Cl)cc12 | – | 2.82 µM [falling, full curve, poor fit] |

| SMILES | AC50 [1] | AC50 [2] |
| --- | --- | --- |
| Cc1ccnc(NC(=O)CCC(=O)c2cccs2)c1 | – | 25.9 µM [falling, single point] |
| CC(NC(=O)c1cc(-c2ccc(Br)cc2)on1)c1ccccc1 (stereo unspecified) | – | 35.5 µM [rising, partial curve, poor fit] |
| COc1ccccc1C(=O)NNC(=O)C(=O)Nc1ccc(C)c(Cl)c1 | – | 14.1 µM [falling, partial curve] |
| CC(=O)c1ccc(NC(=O)c2cnsn2)cc1 | – | 7.94 µM [falling, partial curve] |
| O=C(COC(=O)CNC(=O)c1cccc(OC(F)F)c1)NCc1ccc2c(c1)OCO2 | – | 10.3 µM [rising, single point] |
| C=CCOC(=O)C1=C[C@H](c2coc3ccccc3c2=O)[C@@H](CCCO)[C@H](OCC)O1 | – | 3.98 µM [rising, partial curve, poor fit] |
| CCOC(=O)c1c(C)c(C(=O)N2CCN(c3cccc(Cl)c3)CC2)c(C)n1C | – | 17.8 µM [falling, single point] |
| Clc1ccc(-c2cn3c(n2)CCC3)cc1 | – | 3.55 µM [rising, partial curve, poor fit] |
| COc1c(N2CCN(C(=S)NCc3ccccc3)C(C)C2)c(F)cc2c(=O)c(C(=O)O)cn(C3CC3)c12 (stereo unspecified) | – | 15.8 µM [rising, single point] |
| CCn1c(SCC(=O)c2ccc(Cl)cc2)nnc1C(C)C | 35.5 µM [falling, partial curve, poor fit] | – |
| CCOC(=O)c1c(-c2ccc(C)o2)csc1N | – | 35.5 µM [falling, partial curve, poor fit] |
| CC(C)c1ccc2c(c1)C1(NN=C(c3ccccc3)S1)C(=O)N2 (stereo unspecified) | – | 32.6 µM [falling, single point] |
| CC1=C(C(=O)NCc2ccccc2)C(c2ccc(C)o2)n2ncnc2N1 (stereo unspecified) | – | 35.5 µM [falling, single point] |
| COc1ccc(COc2cc(-c3cccc(OC)c3)nc3ccc(NC(=O)c4ccccc4)cc23)cc1 | 20.6 µM [falling, single point] | – |
| CCN=C1S/C(=C\c2ccc(-c3cccc(C(=O)O)c3)o2)C(=O)N1CC | – | 10 µM [falling, partial curve] |
| NC(=O)c1ccc(SCC(=O)NC2CCCCC2)c([N+](=O)[O-])c1 | – | 31.6 µM [rising, single point] |
| CCc1ccc(-c2nn(Cc3ccccc3)cc2C(=O)NCC2CCCO2)cc1 (stereo unspecified) | – | 25.9 µM [rising, single point] |
| Cc1cc(C)c2nc(NC(=O)C3CCCO3)sc2c1 (stereo unspecified) | – | 6.51 µM [rising, single point] |
| COc1ccc(S(=O)(=O)N2CCOCC2)cc1NC(=O)CSc1ncnc2ccccc12 | – | 5.01 µM [falling, partial curve, poor fit] |
| COc1ccc(C(=O)C2CCCN(Cc3nc4ccccc4nc3C)C2)cc1OC (stereo unspecified) | – | 0.631 µM [rising, full curve] |
| CCOc1ccc(Cc2nnc(SCC(=O)c3ccc(OC)cc3)o2)cc1 | – | 3.55 µM [rising, partial curve, poor fit] |

4 structures already listed, sorted by SMILES length, ascending.

| SMILES | AC50 [1] | AC50 [2] |
| --- | --- | --- |
| C/C(O)=C(\N=Nc1cc(C)ccc1O)C(N)=O | – | 1.12 µM [falling, full curve, poor fit] |
| O=C(Nc1cccc(O)c1)c1cc(-c2cccs2)on1 | – | 3.98 µM [falling, partial curve] |
| CC(=O)c1ccc(-n2nnnc2SCC(=O)Nc2sc(C)c(C)c2C#N)cc1 | – | 20.6 µM [rising, partial curve, poor fit] |
| Cc1ccc2sc(N(CCCN(C)C)C(=O)CN3C(=O)c4ccccc4C3=O)nc2c1C | – | 35.5 µM [falling, partial curve, poor fit] |
